In US10407712B2, “Methods, compositions and kits for high throughput kinase activity screening using mass spectrometry and stable isotopes” (President and Fellows of Harvard College, priority 2008, dated 2019):
At least one compound was matched to its structure with a doubt left.

Columns and labels:
HEK293 cells [1] = test: Single-reaction KAYAK of HEK293 cells treated with kinase inhibitors followed by insulin stimulation; format: cell-based, human; settings: HEK293, inhibitor 30 min then 100 nM insulin 30 min
HEK293 cells [2] = test: KAYAK of lysates from HEK293 cells pretreated with inhibitors before mitogen stimulation; format: cell-based, human; settings: 100 nM, 1 hr pretreatment
Experimental: For drug inhibition studies, cells were pretreated with U0126 (5 μM) or Wortmannin (100 nM) for 1 hr prior to hormone stimulation.
Peptides were synthesized, purified and quantified as described in Yu et al. 2009 Proc Natl Acad Sci USA 106: 11606-11611, hereby incorporated by reference herein in its entirety. Each substrate peptide (250 pmol) was mixed to a final concentration of 5 μM in the 50 μL reaction mixture. Alternatively, reactions were performed using 6 μg cell lysate aliquotes mixed to a final volume of 20 μl. Cell lysate or other kinase source was added to the substrate mixture in 25 mM Tris-Cl, pH 7.5, containing 5 mM ATP, 7.5 mM MgCl2, 0.2 mM EGTA, 7.5 mM β-glycerophosphate, 0.1 mM Na3VO4, and 0.1 mM DTT. The reaction was incubated at 25° C. for 60 min and then terminated by the addition of 100 μl of 1% trifluoroacetic acid (TFA) containing a known amount of an internal standard (typically 20 pmol). Alternatively, the reaction was incubated at 20° C. for 45 min before termination with TFA.
The KAYAK method was applied to measure the effect of pharmacological inhibitors or siRNA-mediated knockdown of kinase pathways after mitogen stimulation (see FIGS. 5A-5D and 8 for data obtained by immunoblotting analysis of cell lysates). […]

COC[C@H]1OC(=O)c2coc3c2[C@@]1(C)C1=C(C3=O)[C@@H]2CCC(=O)[C@@]2(C)C[C@H]1OC(C)=O [Wortmannin]
effect on insulin-stimulated phosphorylation of peptide E11 (HEK293 cells [1]): blocked | effect on phosphorylation rate of the A3 peptide (HEK293 cells [1]): decreased | effect on insulin-induced phosphorylation of peptide A3 (HEK293 cells [2]): blocked
